Source: publication PMC6237751
No constants are given. Whether binding was seen depends on the method and setting. Binding seen in cells or lysates may run through a third protein. Some results given as binding are weak or reduced against the parent protein; the word gives no strength.

Experiments:
[1] = molecular target: T1, AATF (human (endogenous in U-2 OS)) (UniProt Q9NY61); test: co-IP; AATF antibody on protein G Dynabeads, U-2 OS nuclear extract (SNEB buffer: 20 mM HEPES pH 7.5, 150 mM NaCl, 1% NP40, 0.5% deoxycholate, 0.1% SDS) prepared without Benzonase, 2 h at 4°C; western analysis; IgG as negative control
T1 sequence: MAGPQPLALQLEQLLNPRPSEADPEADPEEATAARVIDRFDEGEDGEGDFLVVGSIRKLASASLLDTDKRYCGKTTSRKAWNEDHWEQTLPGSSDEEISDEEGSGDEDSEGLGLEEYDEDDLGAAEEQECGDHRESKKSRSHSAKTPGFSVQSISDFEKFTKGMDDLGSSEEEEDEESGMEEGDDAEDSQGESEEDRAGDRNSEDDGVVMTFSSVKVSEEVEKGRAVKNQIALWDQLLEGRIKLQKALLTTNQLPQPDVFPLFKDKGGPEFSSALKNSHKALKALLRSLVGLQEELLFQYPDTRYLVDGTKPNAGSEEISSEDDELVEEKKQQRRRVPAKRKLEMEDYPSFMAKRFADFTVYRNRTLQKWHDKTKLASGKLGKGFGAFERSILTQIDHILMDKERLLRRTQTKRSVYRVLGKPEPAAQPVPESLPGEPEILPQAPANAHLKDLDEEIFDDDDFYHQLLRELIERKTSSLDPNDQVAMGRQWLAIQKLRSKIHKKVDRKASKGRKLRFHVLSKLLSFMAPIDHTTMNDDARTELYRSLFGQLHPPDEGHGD

[2] = molecular target: T1, AATF (human (endogenous in U-2 OS)); test: co-IP; AATF antibody on protein G Dynabeads, U-2 OS nuclear extract (SNEB buffer) prepared with 0.2 U/ml Benzonase, 2 h at 4°C; western analysis; IgG as negative control

binding [1]: binds | binding [2]: binds
B1: NOL10 (protein, UniProt Q9BSC4 1-688)
chain: MQVSSLNEVKIYSLSCGKSLPEWLSDRKKRALQKKDVDVRRRIELIQDFEMPTVCTTIKVSKDGQYILATGTYKPRVRCYDTYQLSLKFERCLDSEVVTFEILSDDYSKIVFLHNDRYIEFHSQSGFYYKTRIPKFGRDFSYHYPSCDLYFVGASSEVYRLNLEQGRYLNPLQTDAAENNVCDINSVHGLFATGTIEGRVECWDPRTRNRVGLLDCALNSVTADSEINSLPTISALKFNGALTMAVGTTTGQVLLYDLRSDKPLLVKDHQYGLPIKSVHFQDSLDLILSADSRIVKMWNKNSGKIFTSLEPEHDLNDVCLYPNSGMLLTANETPKMGIYYIPVLGPAPRWCSFLDNLTEELEENPESTVYDDYKFVTKKDLENLGLTHLIGSPFLRAYMHGFFMDIRLYHKVKLMVNPFAYEEYRKDKIRQKIEETRAQRVQLKKLPKVNKELALKLIEEEEEKQKSTWKKKVKSLPNILTDDRFKVMFENPDFQVDEESEEFRLLNPLVSKISEKRKKKLRLLEQQELREKEEEEEPEGKPSDAESSESSDDEKAWVEEVRKQRRLLQQEEKVKRQERLKEDQQTVLKPQFYEIKAGEEFRSFKDSATKQKLMNKTLEDRLKIEAKNGTLSVSDTTVGSKQLTFTLKRSEQQKKQQEAEKLHRQERKRLRRSAGHLKSRHKRGRSFH
